Results on two molecules are retold here after PMC5524797.

Amino acid sequences for entries named in this document (tags omitted).
UniProt Q70KF4: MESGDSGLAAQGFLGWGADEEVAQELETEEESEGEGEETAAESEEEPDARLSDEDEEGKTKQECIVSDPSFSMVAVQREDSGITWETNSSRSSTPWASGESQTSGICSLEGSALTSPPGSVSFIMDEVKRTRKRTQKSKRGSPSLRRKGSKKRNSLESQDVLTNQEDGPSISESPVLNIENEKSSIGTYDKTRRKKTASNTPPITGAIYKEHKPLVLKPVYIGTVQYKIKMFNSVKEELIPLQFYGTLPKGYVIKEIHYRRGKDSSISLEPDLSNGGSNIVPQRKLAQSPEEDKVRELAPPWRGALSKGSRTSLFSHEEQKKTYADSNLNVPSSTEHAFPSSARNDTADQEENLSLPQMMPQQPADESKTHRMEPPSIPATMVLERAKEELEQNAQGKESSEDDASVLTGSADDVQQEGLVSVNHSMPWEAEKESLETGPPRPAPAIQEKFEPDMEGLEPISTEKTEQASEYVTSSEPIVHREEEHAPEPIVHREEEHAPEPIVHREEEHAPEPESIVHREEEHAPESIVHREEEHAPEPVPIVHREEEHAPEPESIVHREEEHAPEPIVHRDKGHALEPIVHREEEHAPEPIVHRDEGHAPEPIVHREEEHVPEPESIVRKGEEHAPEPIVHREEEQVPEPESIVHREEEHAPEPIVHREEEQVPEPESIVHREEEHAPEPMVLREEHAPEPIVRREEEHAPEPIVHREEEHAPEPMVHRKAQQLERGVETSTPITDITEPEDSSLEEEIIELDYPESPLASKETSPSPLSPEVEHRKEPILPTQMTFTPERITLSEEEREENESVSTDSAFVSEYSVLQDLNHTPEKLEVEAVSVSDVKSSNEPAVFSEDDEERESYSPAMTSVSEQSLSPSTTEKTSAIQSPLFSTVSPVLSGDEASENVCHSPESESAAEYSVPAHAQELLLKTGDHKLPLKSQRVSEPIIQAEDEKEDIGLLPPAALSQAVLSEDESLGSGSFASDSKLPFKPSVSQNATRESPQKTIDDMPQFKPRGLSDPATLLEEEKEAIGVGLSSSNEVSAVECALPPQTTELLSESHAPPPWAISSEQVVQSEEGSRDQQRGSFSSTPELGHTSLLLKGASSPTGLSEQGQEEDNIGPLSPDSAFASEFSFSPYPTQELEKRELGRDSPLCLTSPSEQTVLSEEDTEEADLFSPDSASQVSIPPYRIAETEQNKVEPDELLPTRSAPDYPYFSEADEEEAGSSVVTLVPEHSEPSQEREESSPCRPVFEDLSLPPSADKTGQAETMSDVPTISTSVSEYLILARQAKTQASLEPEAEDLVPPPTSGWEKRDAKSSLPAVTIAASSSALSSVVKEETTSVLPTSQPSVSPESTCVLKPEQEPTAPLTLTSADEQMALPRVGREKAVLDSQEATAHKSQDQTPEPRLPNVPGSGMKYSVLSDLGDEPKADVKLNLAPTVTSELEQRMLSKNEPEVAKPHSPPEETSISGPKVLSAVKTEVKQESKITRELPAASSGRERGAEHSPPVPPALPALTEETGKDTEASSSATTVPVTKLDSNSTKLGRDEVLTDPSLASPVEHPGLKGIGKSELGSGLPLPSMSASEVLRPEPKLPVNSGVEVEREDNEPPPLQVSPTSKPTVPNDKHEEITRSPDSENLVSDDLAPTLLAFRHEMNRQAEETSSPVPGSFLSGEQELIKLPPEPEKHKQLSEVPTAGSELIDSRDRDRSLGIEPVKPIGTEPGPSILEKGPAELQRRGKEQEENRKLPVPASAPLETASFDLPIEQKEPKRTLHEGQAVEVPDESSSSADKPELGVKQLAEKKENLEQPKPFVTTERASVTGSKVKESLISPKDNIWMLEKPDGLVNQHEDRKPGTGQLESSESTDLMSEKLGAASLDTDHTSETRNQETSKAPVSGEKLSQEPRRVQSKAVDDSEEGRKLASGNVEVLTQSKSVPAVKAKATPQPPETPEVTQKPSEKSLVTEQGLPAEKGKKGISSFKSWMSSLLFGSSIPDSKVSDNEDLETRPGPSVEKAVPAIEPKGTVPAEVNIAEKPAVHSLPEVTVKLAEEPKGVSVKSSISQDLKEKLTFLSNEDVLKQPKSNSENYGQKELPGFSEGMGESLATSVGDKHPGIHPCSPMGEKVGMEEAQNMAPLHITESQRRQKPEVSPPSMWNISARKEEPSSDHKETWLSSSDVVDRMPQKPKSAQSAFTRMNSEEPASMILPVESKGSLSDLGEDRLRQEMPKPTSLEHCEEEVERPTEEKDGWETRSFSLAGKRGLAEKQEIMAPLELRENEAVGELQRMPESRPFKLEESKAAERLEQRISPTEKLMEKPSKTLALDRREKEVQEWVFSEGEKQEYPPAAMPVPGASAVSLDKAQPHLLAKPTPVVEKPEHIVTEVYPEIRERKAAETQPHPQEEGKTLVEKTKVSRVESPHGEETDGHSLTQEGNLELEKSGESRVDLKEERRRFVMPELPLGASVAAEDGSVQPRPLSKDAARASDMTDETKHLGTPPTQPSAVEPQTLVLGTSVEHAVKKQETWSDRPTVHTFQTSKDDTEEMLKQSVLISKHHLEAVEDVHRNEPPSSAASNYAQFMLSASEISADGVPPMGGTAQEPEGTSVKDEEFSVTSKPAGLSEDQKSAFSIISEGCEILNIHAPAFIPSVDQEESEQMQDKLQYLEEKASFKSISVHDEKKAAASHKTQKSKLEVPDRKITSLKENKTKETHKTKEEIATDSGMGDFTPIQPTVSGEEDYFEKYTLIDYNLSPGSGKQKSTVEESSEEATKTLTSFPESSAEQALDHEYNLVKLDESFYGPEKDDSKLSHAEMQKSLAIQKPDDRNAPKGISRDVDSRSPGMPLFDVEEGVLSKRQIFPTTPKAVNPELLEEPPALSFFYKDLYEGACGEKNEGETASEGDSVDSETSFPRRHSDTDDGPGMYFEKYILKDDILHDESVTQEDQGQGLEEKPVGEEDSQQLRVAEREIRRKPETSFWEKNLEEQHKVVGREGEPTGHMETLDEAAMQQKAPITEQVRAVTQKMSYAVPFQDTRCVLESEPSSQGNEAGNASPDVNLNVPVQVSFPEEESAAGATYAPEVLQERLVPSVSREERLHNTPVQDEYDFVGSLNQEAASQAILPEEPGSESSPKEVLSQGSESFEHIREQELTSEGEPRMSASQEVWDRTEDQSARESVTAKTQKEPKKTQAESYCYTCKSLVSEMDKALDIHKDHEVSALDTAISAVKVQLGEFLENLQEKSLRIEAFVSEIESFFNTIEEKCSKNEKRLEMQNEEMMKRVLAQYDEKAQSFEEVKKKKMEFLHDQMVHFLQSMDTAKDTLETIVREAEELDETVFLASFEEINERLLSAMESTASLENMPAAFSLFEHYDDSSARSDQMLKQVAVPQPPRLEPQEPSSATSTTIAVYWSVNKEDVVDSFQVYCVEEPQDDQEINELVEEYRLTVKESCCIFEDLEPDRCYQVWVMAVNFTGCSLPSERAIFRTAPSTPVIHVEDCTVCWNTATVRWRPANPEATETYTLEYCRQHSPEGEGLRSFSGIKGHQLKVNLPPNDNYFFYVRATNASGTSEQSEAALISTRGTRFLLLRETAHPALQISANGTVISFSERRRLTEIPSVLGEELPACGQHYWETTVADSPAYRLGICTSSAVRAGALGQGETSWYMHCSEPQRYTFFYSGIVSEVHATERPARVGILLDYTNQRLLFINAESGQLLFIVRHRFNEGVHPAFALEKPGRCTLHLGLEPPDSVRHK

Assay [1] deals with cardiac ryanodine receptor (RyR2) (mouse (endogenous in heart)) (UniProt E9Q401). In words: affinity purification with mass spectrometry; pan-RyR antibody 34C cross-linked to protein A/G-agarose; RyRs immunoaffinity-purified from heart; read-out told only as 'a combination of mass spectrometry and western blotting'. For orientation: A western blot detects proteins with antibodies after separation by electrophoresis.

The target in assay [2] is T1, minispryn (mouse (endogenous in heart)) (UniProt Q8BZ52).
T1 sequence: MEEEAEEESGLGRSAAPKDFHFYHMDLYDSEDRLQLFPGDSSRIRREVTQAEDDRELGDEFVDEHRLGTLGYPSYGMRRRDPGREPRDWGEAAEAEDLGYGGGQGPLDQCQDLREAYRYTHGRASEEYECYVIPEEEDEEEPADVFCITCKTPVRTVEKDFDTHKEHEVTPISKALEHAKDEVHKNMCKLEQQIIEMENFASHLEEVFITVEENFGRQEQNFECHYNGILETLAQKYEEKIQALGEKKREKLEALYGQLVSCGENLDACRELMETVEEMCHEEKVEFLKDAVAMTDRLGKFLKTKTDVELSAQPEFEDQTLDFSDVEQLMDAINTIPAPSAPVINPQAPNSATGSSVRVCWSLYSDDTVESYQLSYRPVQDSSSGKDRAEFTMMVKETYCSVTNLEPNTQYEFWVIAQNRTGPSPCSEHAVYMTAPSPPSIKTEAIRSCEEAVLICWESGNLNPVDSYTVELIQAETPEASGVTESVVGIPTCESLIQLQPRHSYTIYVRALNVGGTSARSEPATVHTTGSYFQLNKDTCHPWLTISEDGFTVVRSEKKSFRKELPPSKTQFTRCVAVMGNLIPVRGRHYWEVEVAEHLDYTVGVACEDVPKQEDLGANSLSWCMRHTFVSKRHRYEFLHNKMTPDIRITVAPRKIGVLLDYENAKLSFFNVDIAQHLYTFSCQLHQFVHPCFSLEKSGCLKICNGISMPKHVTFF
Kind of assay: affinity purification with mass spectrometry; anti-minispryn antibody 819 cross-linked to protein A/G-agarose; mouse heart RIPA extract, overnight at 4 °C; washed in RIPA with 0.5 M NaCl; bands not shared with the protein G control excised and analysed by mass spectrometry.

Assay [3] has as its target myospryn (mouse (endogenous in heart)) (UniProt Q70KF4). In words: affinity purification with mass spectrometry; anti-myospryn antibody des122 conjugated to agarose beads; mouse heart RIPA extract, overnight at 4 °C; washed in RIPA with 0.5 M NaCl; bands excised and analysed by mass spectrometry.

These are yes or no findings as the source states them, for the method shown. In cells and extracts the contact can be indirect. Here binding means that the protein was enriched with, or labelled near, the bait; the list need not be complete.

As for myospryn (from UniProt Q70KF4 1-3739), the binding result in assay [1] and in assay [2] was “binds” in each case.

B1: minispryn (protein, UniProt Q8BZ52 1-716)
chain: MEEEAEEESGLGRSAAPKDFHFYHMDLYDSEDRLQLFPGDSSRIRREVTQAEDDRELGDEFVDEHRLGTLGYPSYGMRRRDPGREPRDWGEAAEAEDLGYGGGQGPLDQCQDLREAYRYTHGRASEEYECYVIPEEEDEEEPADVFCITCKTPVRTVEKDFDTHKEHEVTPISKALEHAKDEVHKNMCKLEQQIIEMENFASHLEEVFITVEENFGRQEQNFECHYNGILETLAQKYEEKIQALGEKKREKLEALYGQLVSCGENLDACRELMETVEEMCHEEKVEFLKDAVAMTDRLGKFLKTKTDVELSAQPEFEDQTLDFSDVEQLMDAINTIPAPSAPVINPQAPNSATGSSVRVCWSLYSDDTVESYQLSYRPVQDSSSGKDRAEFTMMVKETYCSVTNLEPNTQYEFWVIAQNRTGPSPCSEHAVYMTAPSPPSIKTEAIRSCEEAVLICWESGNLNPVDSYTVELIQAETPEASGVTESVVGIPTCESLIQLQPRHSYTIYVRALNVGGTSARSEPATVHTTGSYFQLNKDTCHPWLTISEDGFTVVRSEKKSFRKELPPSKTQFTRCVAVMGNLIPVRGRHYWEVEVAEHLDYTVGVACEDVPKQEDLGANSLSWCMRHTFVSKRHRYEFLHNKMTPDIRITVAPRKIGVLLDYENAKLSFFNVDIAQHLYTFSCQLHQFVHPCFSLEKSGCLKICNGISMPKHVTFF
For the molecule B1, the binding result in assay [1] and in assay [3] was “binds” each time.
